Substitutions are numbered along the chain they refer to. Results are given in words; binding and its absence hold for the method and conditions named. Some binding calls cover weakened binding; strength is not graded here.
B1: SEQ ID NO 4 (VHH)
VHH: QVQLQESGGGLVQPGGSLRLSCAASGSIFSIDAMGWYRQAPGNQRELVAHIGSGGSTNYPDSVKGRFTISRDNAENTFYLQMNSLKPEDTAVYYCSANIYRDSYRYTTYWGQGTQVTVSS
B2: SEQ ID NO 40 (VHH)
VHH: QVQLQESGGGLVQPGESLRLACAASVSIASINFIGWYRQAPGNQREWVATVSSGDGTNYADSVKGRFTISRDNAKNTVYLQMNSLKPEDTAVYYCNVKQRGTYWGQGTQVTVSS
B3: SEQ ID NO 41 (VHH)
VHH: B2 VHH with E16G
B4: SEQ ID NO 42 (VHH)
VHH: QVQLQESGGGLVQAGGSLRLSCAASGSIFSFNPMTWYRQSPGKQRELVALITGGDNTRYADSVKGRFTISRDNAKNTIHLQMNSLKPEDTAVYYCNVLWRNAIYWGQGTQVTVSS
B5: SEQ ID NO 43 (VHH)
VHH: B4 VHH with L50S, D55G, R58N
B6: SEQ ID NO 44 (VHH)
VHH: B4 VHH with R19G, A23T, A24V, S27N, F29A, S30R, L50S, D55G, R58N
B7: SEQ ID NO 45 (VHH)
VHH: B4 VHH with L50S, D55G, R58N, N76S
B8: SEQ ID NO 46 (VHH)
VHH: QVQLQESGGGLVQAGGSLTLSCAASGDIFTVNAMGWYRQAPGKQRELVATIREPGSTNYADFVKGRFTISRDNAENTFYLQMNSLKPEDTAVYYCSANIYADVSHYTTYWGQGTQVTVSS
B9: SEQ ID NO 48 (VHH)
VHH: QVQLQESGGGLVQAGGSLRLSCEASGSAVSIDNMGWYRQAPGQQREMVAHITSGGSTSYVDSVKGRFTISRDNAENTFYLQMNSLKPEDTAVYYCSANIYADVSHYTTYWGQGTQVTVSS
B10: SEQ ID NO 5 (VHH)
VHH: B1 VHH with P14A, G52I, G55N, N58A, P60S, S96Y, A97V, R101S, Y104S
B11: SEQ ID NO 51 (VHH)
VHH: QVQLQESGGGLVQAGGSLRLSCAASGSIRDIVFMGWFRQAPGKQREFVATITTGGNTNYADSMKGRFTISRDNAKNTVYLQVNSLKPEDTAVYYCKTVTTRGNAYWGQGTQVTVSS
B12: SEQ ID NO 52 (VHH)
VHH: B11 VHH with L11S, A74T
B13: SEQ ID NO 53 (VHH)
VHH: QVQLQESGGGLVQAGGSLRLSCAASGSIFSINFVAWFRQPPGKEREWLATITSGGNTNHADTVKDRFTISRDNAKNTVYLQMSSLKPEDTAVYYCKAIVRSRDYWGQGTQVTVSS
B14: SEQ ID NO 54 (VHH)
VHH: B13 VHH with A97T, I98N
B15: SEQ ID NO 56 (VHH)
VHH: QVQLQESGGGLVQAGGSLRLSCVASGSIFTINTMNQYRQAPGKQRDFVAAITSDGNTHYADSVRGRFTVSRNNARKTMYLQMNNLKPEDTAVYYCNIMGQRTVSANVRGYWGQGTQVTVSS
B16: SEQ ID NO 57 (VHH)
VHH: QVQLQESGGGLVQAGGSLRLSCTASGRIYSLNVMGWYRQAPGKQREFLATINSGGSTNYADSVKGRFTISRDNAKNTLYLQMNSLKPDDTALYYCRADGRSDYFNTFDSWGQGTQVTVSS
B17: SEQ ID NO 58 (VHH)
VHH: QVQLQESGGGLVQAGGSLRLSCAASGSIFSLNAMGWYRQAPGKQRELVATITTGGNTNYADFVNGRFTISRDNAKNTVYLQMNSLKPEDTAVYVCNAPHVPNGRGITTSWGQGTQVTVSS
B18: SEQ ID NO 59 (VHH)
VHH: QVQLQESGGGLVQAGGSLRLSCAASISILSIPAMGWYRQAPGKQRELVAIISSGGSTHYADSVKGRFTISRDNDKNTMYLEMDNLKPDDTAVYDCYARILTANRLTDNWGQGTQVTVSS
B19: SEQ ID NO 6 (VHH)
VHH: B1 VHH with P14A, A40G, G52T, N58S, P60I, R101G, Q112R
B20: SEQ ID NO 60 (VHH)
VHH: QVQLQESGGGLVQAGGSLRLSCAASGSIASINVMAWYRQAPGKQRELVALITSGTSTNYADSVKGRFTISRDNAKNTVYLQMNNLKPEDTAVYYCNARPRALASYSVWGQGTQVTVSS
B21: SEQ ID NO 61 (VHH)
VHH: QVQLQESGGGLVQAGGSLRLSCAASGNFFSSNAMGWYRQAPGKQREFVAVILSSGSTNYADSVKGRFTISGDNALNTVYLQMNSLKPEDTAVYYCNLKGLEGRTNNYWGQGTQVTVSS
B22: SEQ ID NO 62 (VHH)
VHH: QVQLQESGGGLVQAGGSLRLSCAASDTIFSITFMSWYRQAPGKEREVVGVISSGGGTSYADSVKGRFTISRDNVKNTLYLQMNSLKPEDTAVYYCNVMSQNGRRSVYWGQGTQVTVSS
B23: SEQ ID NO 63 (VHH)
VHH: QVQLQESGGGLVQAGGSLRLSCAASGNIYSINVMGWYRQAPGKQRELVATISDGGTTTYADSMKGRFTISRDNAKNTLYLQMNSLKPEDTAVYYCNLNGRNGRRAYWGQGTQVTVSS
B24: SEQ ID NO 64 (VHH)
VHH: QVQLQESGGGLVQAGGSLRLSCAASGRIRSFNVMGWYRQAPGKERELVANITSGGNTNYADSMKGRFTISRDNAKNMMYLQMDSLKPEDTAVYYCNLRQLGSRDYWGQGTQVTVSS
B25: SEQ ID NO 65 (VHH)
VHH: QVQLQESGGGLVQPGGSLRLSCAASGSIRSNNAMGWYRQAPGKQREFVATMITGGSRNYTDSVKGRFTISRDNAKNTVWLQMNSLKPEDTAVYYCYYNKIGGRIYWGQGTQVTVSS
B26: SEQ ID NO 66 (VHH)
VHH: QVQLQESGGGLVQAGGSLRLSCVASGITISSSHMGWYRQAPGKQRELVAIITTGDSTNYGDSVKGRFTISRDNNKNMVYLQMNSLKVEDTAVYYCKRTRIGGRDYWGQGTQVTVSS
B27: SEQ ID NO 7 (VHH)
VHH: B1 VHH with P14A, D32N, G52T, G55S, N58A, S96Y, R105H
B28: SEQ ID NO 8 (VHH)
VHH: B1 VHH with P14A, I31M, D32N, G52T, G55N, N58S, V63T, S96Y, R101G, Y104S
B29: SEQ ID NO 9 (VHH)
VHH: B1 VHH with P14A, G52I, G55N, N58A, S96Y, R101G

Sequences of proteins named here, by UniProt entry; tags and fusion partners are left off. A change or cut given only in a name is not applied to a line headed by its entry.
UniProt P06756: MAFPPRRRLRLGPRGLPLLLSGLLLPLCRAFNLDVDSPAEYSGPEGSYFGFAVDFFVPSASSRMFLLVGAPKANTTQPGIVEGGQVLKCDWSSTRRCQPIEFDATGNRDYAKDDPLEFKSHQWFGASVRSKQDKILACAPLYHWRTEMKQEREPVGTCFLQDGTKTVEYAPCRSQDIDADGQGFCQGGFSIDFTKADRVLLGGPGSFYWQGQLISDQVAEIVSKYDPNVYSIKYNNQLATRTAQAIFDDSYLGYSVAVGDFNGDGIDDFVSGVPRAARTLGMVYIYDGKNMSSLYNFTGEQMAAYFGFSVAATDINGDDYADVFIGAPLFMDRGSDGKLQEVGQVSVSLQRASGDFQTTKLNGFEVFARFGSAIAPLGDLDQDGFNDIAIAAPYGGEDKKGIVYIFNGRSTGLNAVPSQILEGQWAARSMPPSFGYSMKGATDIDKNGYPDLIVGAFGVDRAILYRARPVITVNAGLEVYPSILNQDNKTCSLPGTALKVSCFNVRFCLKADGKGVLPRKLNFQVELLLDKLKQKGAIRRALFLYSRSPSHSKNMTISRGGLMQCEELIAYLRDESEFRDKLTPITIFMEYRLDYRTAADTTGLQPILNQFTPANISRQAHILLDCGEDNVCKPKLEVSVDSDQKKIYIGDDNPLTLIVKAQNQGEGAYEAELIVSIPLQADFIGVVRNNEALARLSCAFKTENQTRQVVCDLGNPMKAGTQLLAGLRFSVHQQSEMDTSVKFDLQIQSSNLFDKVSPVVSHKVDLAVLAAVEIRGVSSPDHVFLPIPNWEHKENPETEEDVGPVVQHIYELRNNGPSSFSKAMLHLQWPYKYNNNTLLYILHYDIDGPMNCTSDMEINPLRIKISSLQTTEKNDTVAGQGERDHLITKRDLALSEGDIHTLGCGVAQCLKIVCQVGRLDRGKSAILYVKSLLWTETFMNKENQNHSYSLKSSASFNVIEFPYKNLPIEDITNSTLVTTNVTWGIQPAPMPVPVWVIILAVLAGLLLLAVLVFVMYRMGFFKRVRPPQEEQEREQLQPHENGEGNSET

The binders below were run against human ITGAV/ITGB6 dimer protein (human) (UniProt P06756) (assay: colorimetric ELISA, periplasmic extracts).

binding, binds:
B1
B2
B3
B4
B5
B6
B7
B8
B9
B10
B11
B12
B13
B14
B15
B16
B17
B18
B19
B20
B21
B22
B23
B24
B25
B26
B27
B28
B29

— patent EP4633740A2
